Assay results as given in patent US12173088B2, “Anti-microbial peptides” (priority 2018, dated 2024).
Square brackets hold non-standard residues; d marks the D form. Peptide text beside a SMILES is read from it.

System: human red blood cells (hRBCs)
Assay: Hemolytic assay
Type: cell-based
Conditions: ratio between HL50 and MIC (S. aureus USA300)
Experimental: Briefly, human red blood cells (hRBCs) were washed three times with phosphate buffer saline (PBS) and diluted to a 2% solution (v/v). After peptide treatment, incubation at 37° C. for one hour, and centrifugation at 5000 rpm for 10 minutes, aliquots of the supernatant were carefully transferred to a fresh 96-well microplate. The amount of hemoglobin released was measured at 545 nm. The percent lysis was calculated by assuming 100% release when human blood cells were treated with 2% Triton™ X-100, and 0% release when incubated with PBS buffer. The peptide concentration that caused 50% lysis of hRBCs is defined as HL50. The cell selectivity index (CSI) was calculated as the ratio between HL50 and MIC of the corresponding peptide against a select pathogenic species.
Hemolytic assays of peptides were performed as described (Mishra, et al. (2017) Acta Biomater., 49:316-328). Briefly, human red blood cells (hRBCs) obtained from UNMC Blood Bank. The blood washed 3× with isotonic saline (0.9% NaCl) and diluted to 2% blood cells (v/v). Peptide horine and verine at various concentrations were added into the 2% blood cells and incubated at 37° C. for 1 hour. Post incubation the plates were spun at 2000 rpm for 10 minutes, aliquots of the supernatant were carefully transferred to a fresh 96-well microplate. The amount of cells lysed is proportional to the hemoglobin released and measured at 545 nm using a ChroMate® microplate reader. The percent lysis was calculated by assuming 100% release when human blood cells were treated with 1% Triton™ X-100, and 0% release when incubated with PBS. The peptide concentration that caused 50% lysis of hRBCs is defined as HL50.

Row | Structure (SMILES) | CSI, cell selectivity index
1 | CC(C)C[C@H](NC(=O)[C@H](CC(C)C)NC(=O)[C@H](CCCCN)NC(=O)[C@H](CC(C)C)NC(=O)CNC(=O)[C@H](CC(C)C)NC(=O)[C@H](CO)NC(=O)[C@H](CC(C)C)NC(=O)[C@H](CC(C)C)NC(=O)[C@H](CC(C)C)NC(=O)[C@H](CO)NC(=O)[C@H](CC(C)C)NC(=O)CN)C(N)=O [DFT503] (H-GLSLLLSLGLKLL-NH2; N-terminus and C-terminus assumed) | >192
2 | CC(C)C[C@@H](NC(=O)[C@@H](CC(C)C)NC(=O)[C@@H](CCCCN)NC(=O)[C@@H](CC(C)C)NC(=O)CNC(=O)[C@@H](CC(C)C)NC(=O)[C@@H](CO)NC(=O)[C@@H](CC(C)C)NC(=O)[C@@H](CC(C)C)NC(=O)[C@@H](CC(C)C)NC(=O)[C@@H](CO)NC(=O)[C@@H](CC(C)C)NC(=O)CN)C(N)=O [DFT503d] (H-G[dL][dS][dL][dL][dL][dS][dL]G[dL][dK][dL][dL]-NH2; N-terminus and C-terminus assumed) | >192
3 | CC(C)C[C@H](NC(=O)[C@H](CC(C)C)NC(=O)[C@H](CCCCN)NC(=O)[C@H](CC(C)C)NC(=O)CNC(=O)[C@H](CC(C)C)NC(=O)[C@H](CO)NC(=O)[C@H](CC(C)C)NC(=O)[C@H](CC(C)C)NC(=O)[C@H](CO)NC(=O)[C@H](CC(C)C)NC(=O)[C@H](CC(C)C)NC(=O)CN)C(N)=O [DFT531] (H-GLLSLLSLGLKLL-NH2; N-terminus and C-terminus assumed) | 9.0
4 | CC(C)C[C@H](NC(=O)[C@H](CC(C)C)NC(=O)[C@H](CCCCN)NC(=O)[C@H](CC(C)C)NC(=O)CNC(=O)[C@H](CC(C)C)NC(=O)[C@H](CO)NC(=O)[C@H](CC(C)C)NC(=O)[C@H](CC(C)C)NC(=O)[C@H](CC(C)C)NC(=O)[C@H](CO)NC(=O)[C@H](CC(C)C)NC(=O)[C@@H](N)CCCCN)C(N)=O [DFT560] (H-KLSLLLSLGLKLL-NH2; N-terminus and C-terminus assumed) | 16
5 | CC(C)C[C@H](NC(=O)[C@H](CC(C)C)NC(=O)[C@H](CCCCN)NC(=O)[C@H](CC(C)C)NC(=O)CNC(=O)[C@H](CC(C)C)NC(=O)[C@H](CO)NC(=O)[C@H](CC(C)C)NC(=O)[C@H](CC(C)C)NC(=O)[C@H](CC(C)C)NC(=O)[C@H](CCCCN)NC(=O)[C@H](CC(C)C)NC(=O)CN)C(N)=O [DFT561] (H-GLKLLLSLGLKLL-NH2; N-terminus and C-terminus assumed) | >192
6 | CC(C)C[C@@H](NC(=O)[C@@H](CC(C)C)NC(=O)[C@@H](CCCCN)NC(=O)[C@@H](CC(C)C)NC(=O)CNC(=O)[C@@H](CC(C)C)NC(=O)[C@@H](CO)NC(=O)[C@@H](CC(C)C)NC(=O)[C@@H](CC(C)C)NC(=O)[C@@H](CC(C)C)NC(=O)[C@@H](CCCCN)NC(=O)[C@@H](CC(C)C)NC(=O)CN)C(N)=O [DFT561d] (H-G[dL][dK][dL][dL][dL][dS][dL]G[dL][dK][dL][dL]-NH2; N-terminus and C-terminus assumed) | >192
7 | CC(C)C[C@H](NC(=O)[C@H](CC(C)C)NC(=O)[C@H](CCCCN)NC(=O)[C@H](CC(C)C)NC(=O)CNC(=O)[C@H](CC(C)C)NC(=O)[C@H](CCCCN)NC(=O)[C@H](CC(C)C)NC(=O)[C@H](CC(C)C)NC(=O)[C@H](CC(C)C)NC(=O)[C@H](CCCCN)NC(=O)[C@H](CC(C)C)NC(=O)CN)C(N)=O [DFT564] (H-GLKLLLKLGLKLL-NH2; N-terminus and C-terminus assumed) | <16
8 | CC(C)C[C@H](NC(=O)[C@H](CC(C)C)NC(=O)[C@H](CCCCN)NC(=O)[C@H](CC(C)C)NC(=O)CNC(=O)[C@H](CC(C)C)NC(=O)[C@H](CCCCN)NC(=O)[C@H](CC(C)C)NC(=O)[C@H](CC(C)C)NC(=O)[C@H](CC(C)C)NC(=O)[C@H](CCCCN)NC(=O)[C@H](CC(C)C)NC(=O)[C@@H](N)CCCCN)C(N)=O [DFT565] (H-KLKLLLKLGLKLL-NH2; N-terminus and C-terminus assumed) | 64
9 | CC(C)C[C@H](NC(=O)[C@H](CC(C)C)NC(=O)[C@H](CCCCN)NC(=O)CNC(=O)[C@H](CC(C)C)NC(=O)[C@H](CC(C)C)NC(=O)[C@H](CO)NC(=O)[C@H](CC(C)C)NC(=O)[C@H](CC(C)C)NC(=O)[C@H](CO)NC(=O)[C@H](CC(C)C)NC(=O)[C@H](CC(C)C)NC(=O)CN)C(N)=O [DFTamP1] (H-GLLSLLSLLGKLL-NH2; N-terminus assumed) | 3.2
